No constants are given. Whether binding was seen depends on the method and setting. In cells and extracts the contact can be indirect. Some results given as binding are weak or reduced against the parent protein; the word gives no strength.
Tests used:
[1] = target: SAFB of HEK293T cells (human (endogenous in HEK293T)) (UniProt Q15424); assay: co-IP; nuclear extract of HEK293T cells transfected with A3B-FLAG, immunoprecipitated with anti-FLAG, anti-ILF2 or anti-SAFB antibody and Protein G beads at 4 °C, immunoblotting
[2] = target: APOBEC3B with a 3×FLAG tag knocked in at the C-terminus of the endogenous gene (human (endogenous in AMO1 and RPMI8226)) (UniProt Q9UH17); assay: co-IP; ANTI-FLAG M2 Affinity Gel, myeloma cell lysates (AMO1-KI, RPMI8226-KI) in low salt RIPA buffer, 4 °C for 2 h, in the presence of RNase A, immunoblotting
[3] = target: APOBEC3B with a 3×FLAG tag knocked in at the C-terminus of the endogenous gene (human (endogenous in AMO1 and RPMI8226)) (UniProt Q9UH17); assay: co-sedimentation; density gradient sedimentation (4 to 36%) of whole cell extracts of AMO1-KI and RPMI8226-KI in GST lysis buffer, 25,000 rpm for 14 h, fractions immunoblotted; without RNase A
[4] = target: APOBEC3B with a 3×FLAG tag knocked in at the C-terminus of the endogenous gene (human (endogenous in AMO1 and RPMI8226)) (UniProt Q9UH17); assay: co-sedimentation; density gradient sedimentation (4 to 36%) of whole cell extracts of AMO1-KI and RPMI8226-KI in GST lysis buffer, 25,000 rpm for 14 h, fractions immunoblotted; after RNase A treatment

Amino acid sequences for entries named in this document (tags omitted). A change or cut given only in a name is not applied to a line headed by its entry.
UniProt Q15424: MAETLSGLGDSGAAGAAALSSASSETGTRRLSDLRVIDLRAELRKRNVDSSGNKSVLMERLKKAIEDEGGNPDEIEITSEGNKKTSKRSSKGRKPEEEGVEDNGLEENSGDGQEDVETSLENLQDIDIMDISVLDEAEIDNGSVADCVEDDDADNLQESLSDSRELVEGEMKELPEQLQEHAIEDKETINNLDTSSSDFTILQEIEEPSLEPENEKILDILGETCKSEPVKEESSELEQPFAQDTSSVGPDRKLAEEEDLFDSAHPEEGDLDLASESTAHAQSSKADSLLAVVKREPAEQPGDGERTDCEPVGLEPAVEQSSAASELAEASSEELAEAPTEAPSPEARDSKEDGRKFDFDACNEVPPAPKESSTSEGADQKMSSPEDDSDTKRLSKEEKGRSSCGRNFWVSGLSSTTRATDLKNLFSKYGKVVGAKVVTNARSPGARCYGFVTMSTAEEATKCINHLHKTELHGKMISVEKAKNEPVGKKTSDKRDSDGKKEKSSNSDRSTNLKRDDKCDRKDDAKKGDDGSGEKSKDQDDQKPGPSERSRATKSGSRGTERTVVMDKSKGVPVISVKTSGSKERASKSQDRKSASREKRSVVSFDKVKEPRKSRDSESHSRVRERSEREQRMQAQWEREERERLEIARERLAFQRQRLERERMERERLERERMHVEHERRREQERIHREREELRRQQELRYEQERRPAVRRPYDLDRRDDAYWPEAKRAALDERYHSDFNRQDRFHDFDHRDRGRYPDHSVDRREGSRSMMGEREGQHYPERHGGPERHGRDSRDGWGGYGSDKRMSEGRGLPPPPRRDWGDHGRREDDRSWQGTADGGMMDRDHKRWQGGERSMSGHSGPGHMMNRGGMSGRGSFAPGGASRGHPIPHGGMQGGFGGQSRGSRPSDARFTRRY
UniProt Q9UH17: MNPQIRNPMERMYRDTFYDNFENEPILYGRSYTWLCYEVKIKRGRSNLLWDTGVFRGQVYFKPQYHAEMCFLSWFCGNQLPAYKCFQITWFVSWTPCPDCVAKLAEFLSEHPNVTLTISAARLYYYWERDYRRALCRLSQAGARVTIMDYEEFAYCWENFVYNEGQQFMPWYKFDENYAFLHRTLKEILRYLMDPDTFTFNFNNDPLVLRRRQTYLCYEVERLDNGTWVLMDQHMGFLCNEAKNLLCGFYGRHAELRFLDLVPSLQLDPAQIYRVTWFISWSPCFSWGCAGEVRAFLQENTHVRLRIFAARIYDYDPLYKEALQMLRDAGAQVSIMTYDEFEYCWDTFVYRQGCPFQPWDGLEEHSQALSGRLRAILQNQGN

Row | binding [1] | binding [2] | binding [3] | binding [4] | Molecule
1 | binds |  |  |  | A3B-FLAG (from UniProt Q9UH17 1-382) (enzyme)
2 |  | no binding (condition: with RNase A) | binds | binds | Matrin-3 (protein, UniProt P43243 1-847) MSKSFQQSSLSRDSQGHGRDLSAAGIGLLAAATQSLSMPASLGRMNQGTARLASLMNLGMSSSLNQQGAHSALSSASTSSHNLQSIFNIGSRGPLPLSSQHRGDADQASNILASFGLSARDLDELSRYPEDKITPENLPQILLQLKRRRTEEGPTLSYGRDGRSATREPPYRVPRDDWEEKRHFRRDSFDDRGPSLNPVLDYDHGSRSQESGYYDRMDYEDDRLRDGERCRDDSFFGETSHNYHKFDSEYERMGRGPGPLQERSLFEKKRGAPPSSNIEDFHGLLPKGYPHLCSICDLPVHSNKEWSQHINGASHSRRCQLLLEIYPEWNPDNDTGHTMGDPFMLQQSTNPAPGILGPPPPSFHLGGPAVGPRGNLGAGNGNLQGPRHMQKGRVETSRVVHIMDFQRGKNLRYQLLQLVEPFGVISNHLILNKINEAFIEMATTEDAQAAVDYYTTTPALVFGKPVRVHLSQKYKRIKKPEGKPDQKFDQKQELGRVIHLSNLPHSGYSDSAVLKLAEPYGKIKNYILMRMKSQAFIEMETREDAMAMVDHCLKKALWFQGRCVKVDLSEKYKKLVLRIPNRGIDLLKKDKSRKRSYSPDGKESPSDKKSKTDGSQKTESSTEGKEQEEKSGEDGEKDTKDDQTEQEPNMLLESEDELLVDEEEAAALLESGSSVGDETDLANLGDVASDGKKEPSDKAVKKDGSASAAAKKKLKKVDKIEELDQENEAALENGIKNEENTEPGAESSENADDPNKDTSENADGQSDENKDDYTIPDEYRIGPYQPNVPVGIDYVIPKTGFYCKLCSLFYTNEEVAKNTHCSSLPHYQKLKKFLNKLAEERRQKKET
3 |  | no binding (condition: with RNase A) | binds | binds | SRSF7 (protein, UniProt Q16629 1-238) MSRYGRYGGETKVYVGNLGTGAGKGELERAFSYYGPLRTVWIARNPPGFAFVEFEDPRDAEDAVRGLDGKVICGSRVRVELSTGMPRRSRFDRPPARRPFDPNDRCYECGEKGHYAYDCHRYSRRRRSRSRSRSHSRSRGRRYSRSRSRSRGRRSRSASPRRSRSISLRRSRSASLRRSRSGSIKGSRYFQSPSRSRSRSRSISRPRSSRSKSRSPSPKRSRSPSGSPRRSASPERMD

Source: article PMC8831623
